Values of other authors as cited in patent US20190328687A1, “Antibacterial Compounds” (priority 2014, published 2019).
At least one compound was matched to its structure with a doubt left.

Test system: M. tuberculosis
Details: cited from earlier work

CO[C@H]1/C=C/O[C@@]2(C)Oc3c(C)c(O)c4c(O)c(c(/C=N/N5CCN(C)CC5)c(O)c4c3C2=O)NC(=O)/C(C)=C\C=C\[C@H](C)[C@H](O)[C@@H](C)[C@@H](O)[C@@H](C)[C@H](OC(C)=O)[C@@H]1C [rifampicin]
Effect on membrane potential: did not
